Source: the supplement of paper PMC10849652
This is one part of the list.

Amino acid sequences for entries named in this document (tags omitted). A change or cut given only in a name is not applied to a line headed by its entry.
UniProt O43324: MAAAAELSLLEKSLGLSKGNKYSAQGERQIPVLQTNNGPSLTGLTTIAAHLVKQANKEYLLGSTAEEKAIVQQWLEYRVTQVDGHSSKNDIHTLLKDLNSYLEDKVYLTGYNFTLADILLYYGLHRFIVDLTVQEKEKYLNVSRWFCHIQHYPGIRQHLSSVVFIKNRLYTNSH
UniProt Q8N9N8: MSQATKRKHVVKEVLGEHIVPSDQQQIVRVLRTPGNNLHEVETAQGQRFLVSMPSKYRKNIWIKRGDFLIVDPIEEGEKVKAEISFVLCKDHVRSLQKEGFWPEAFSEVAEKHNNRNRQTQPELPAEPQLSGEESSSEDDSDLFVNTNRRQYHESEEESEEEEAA
UniProt Q96C19: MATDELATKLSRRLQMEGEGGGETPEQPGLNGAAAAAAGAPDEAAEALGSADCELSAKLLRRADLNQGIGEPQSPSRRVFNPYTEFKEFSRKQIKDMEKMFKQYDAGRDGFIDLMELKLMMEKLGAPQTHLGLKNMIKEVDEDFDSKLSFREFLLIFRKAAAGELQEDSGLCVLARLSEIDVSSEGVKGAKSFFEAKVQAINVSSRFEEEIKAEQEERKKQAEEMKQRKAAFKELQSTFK
UniProt Q01658: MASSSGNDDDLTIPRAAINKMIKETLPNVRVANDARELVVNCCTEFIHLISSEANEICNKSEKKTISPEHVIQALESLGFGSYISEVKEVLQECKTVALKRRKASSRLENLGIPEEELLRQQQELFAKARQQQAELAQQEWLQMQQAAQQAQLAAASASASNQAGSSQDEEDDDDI
UniProt Q16254: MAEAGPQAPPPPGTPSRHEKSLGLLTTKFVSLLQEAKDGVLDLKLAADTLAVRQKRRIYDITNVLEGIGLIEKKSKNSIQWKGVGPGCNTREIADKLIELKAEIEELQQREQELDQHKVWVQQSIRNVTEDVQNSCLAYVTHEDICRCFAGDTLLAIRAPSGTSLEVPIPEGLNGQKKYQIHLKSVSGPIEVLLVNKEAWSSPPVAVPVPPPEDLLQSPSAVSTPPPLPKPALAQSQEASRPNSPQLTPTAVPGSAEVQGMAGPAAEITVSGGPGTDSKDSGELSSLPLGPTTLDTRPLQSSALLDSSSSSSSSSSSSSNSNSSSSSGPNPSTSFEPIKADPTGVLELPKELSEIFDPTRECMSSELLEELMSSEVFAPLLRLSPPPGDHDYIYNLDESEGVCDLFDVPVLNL
UniProt P33316: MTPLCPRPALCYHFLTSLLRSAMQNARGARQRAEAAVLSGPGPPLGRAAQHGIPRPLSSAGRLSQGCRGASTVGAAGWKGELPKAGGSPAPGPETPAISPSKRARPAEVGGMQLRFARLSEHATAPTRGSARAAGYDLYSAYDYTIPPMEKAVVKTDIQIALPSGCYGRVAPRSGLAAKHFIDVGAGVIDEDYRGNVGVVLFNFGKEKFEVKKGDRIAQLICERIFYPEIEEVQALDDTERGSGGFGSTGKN
UniProt O60739, whole entry, looked up: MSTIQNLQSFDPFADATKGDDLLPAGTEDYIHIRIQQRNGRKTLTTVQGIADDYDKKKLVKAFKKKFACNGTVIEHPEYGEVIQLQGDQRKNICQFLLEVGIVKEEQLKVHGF
UniProt Q15029: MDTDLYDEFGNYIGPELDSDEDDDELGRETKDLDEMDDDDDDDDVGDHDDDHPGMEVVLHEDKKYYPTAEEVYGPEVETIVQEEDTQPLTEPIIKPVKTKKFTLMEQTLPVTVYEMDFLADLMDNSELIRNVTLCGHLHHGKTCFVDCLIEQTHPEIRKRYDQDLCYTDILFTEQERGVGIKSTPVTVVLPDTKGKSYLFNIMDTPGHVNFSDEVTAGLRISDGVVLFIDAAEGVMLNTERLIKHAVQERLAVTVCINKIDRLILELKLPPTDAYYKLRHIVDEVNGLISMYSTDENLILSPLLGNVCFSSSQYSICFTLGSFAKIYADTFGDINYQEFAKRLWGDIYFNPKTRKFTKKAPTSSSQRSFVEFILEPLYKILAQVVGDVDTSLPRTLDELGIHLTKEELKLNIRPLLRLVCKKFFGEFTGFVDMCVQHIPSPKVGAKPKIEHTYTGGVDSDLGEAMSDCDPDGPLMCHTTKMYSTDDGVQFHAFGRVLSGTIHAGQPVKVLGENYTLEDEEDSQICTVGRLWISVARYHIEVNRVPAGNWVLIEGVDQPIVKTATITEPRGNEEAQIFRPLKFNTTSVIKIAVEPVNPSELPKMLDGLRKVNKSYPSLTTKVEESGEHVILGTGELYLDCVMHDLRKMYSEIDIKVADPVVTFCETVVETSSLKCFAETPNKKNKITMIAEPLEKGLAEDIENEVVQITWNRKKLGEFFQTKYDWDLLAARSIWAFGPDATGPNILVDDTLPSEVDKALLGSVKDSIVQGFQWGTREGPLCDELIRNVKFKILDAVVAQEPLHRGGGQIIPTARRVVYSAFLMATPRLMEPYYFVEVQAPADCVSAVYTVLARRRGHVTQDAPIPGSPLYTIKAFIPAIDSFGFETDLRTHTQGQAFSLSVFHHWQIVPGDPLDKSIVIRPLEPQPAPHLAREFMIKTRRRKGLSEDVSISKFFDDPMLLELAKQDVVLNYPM
UniProt P63172, whole entry, looked up: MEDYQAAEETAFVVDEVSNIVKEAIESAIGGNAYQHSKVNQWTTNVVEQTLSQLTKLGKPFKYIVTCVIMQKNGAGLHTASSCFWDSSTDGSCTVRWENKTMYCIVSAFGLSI
UniProt Q56P03: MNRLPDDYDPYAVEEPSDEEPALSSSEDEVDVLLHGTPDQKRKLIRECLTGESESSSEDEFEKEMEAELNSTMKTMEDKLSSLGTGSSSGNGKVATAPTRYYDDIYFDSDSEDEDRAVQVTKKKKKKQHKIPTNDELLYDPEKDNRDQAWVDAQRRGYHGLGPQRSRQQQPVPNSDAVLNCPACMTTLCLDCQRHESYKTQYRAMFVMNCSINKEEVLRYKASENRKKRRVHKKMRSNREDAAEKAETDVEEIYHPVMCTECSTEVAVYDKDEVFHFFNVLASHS
UniProt Q8N6R0: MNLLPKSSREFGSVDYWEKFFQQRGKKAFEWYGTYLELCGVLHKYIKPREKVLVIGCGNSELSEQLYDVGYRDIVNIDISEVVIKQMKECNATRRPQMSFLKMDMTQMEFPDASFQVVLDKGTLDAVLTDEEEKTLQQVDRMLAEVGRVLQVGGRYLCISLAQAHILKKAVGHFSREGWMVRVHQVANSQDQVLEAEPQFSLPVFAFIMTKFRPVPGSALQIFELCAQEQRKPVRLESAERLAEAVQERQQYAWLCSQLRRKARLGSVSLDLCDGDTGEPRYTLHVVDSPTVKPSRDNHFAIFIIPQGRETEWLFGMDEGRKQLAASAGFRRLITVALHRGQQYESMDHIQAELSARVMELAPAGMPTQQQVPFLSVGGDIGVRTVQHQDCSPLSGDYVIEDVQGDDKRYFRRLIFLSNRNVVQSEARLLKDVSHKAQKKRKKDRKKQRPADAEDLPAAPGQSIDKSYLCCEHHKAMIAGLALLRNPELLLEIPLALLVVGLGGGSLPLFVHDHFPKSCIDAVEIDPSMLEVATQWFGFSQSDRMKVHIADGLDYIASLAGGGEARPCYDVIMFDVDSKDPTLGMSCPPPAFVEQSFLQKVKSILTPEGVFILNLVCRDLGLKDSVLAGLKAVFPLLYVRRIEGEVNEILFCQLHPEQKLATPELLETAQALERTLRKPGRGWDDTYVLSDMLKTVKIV
UniProt O77932: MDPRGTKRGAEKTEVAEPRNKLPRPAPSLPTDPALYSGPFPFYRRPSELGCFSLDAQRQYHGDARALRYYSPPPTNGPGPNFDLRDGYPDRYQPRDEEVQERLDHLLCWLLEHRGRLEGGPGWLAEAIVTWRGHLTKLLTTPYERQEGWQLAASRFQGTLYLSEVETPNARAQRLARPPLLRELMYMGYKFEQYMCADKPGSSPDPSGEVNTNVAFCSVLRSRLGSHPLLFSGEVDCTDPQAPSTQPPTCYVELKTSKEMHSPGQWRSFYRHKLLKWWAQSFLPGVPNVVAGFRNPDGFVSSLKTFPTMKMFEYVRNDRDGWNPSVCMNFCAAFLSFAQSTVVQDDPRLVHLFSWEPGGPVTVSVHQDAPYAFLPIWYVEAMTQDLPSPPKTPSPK
UniProt Q6P1R4: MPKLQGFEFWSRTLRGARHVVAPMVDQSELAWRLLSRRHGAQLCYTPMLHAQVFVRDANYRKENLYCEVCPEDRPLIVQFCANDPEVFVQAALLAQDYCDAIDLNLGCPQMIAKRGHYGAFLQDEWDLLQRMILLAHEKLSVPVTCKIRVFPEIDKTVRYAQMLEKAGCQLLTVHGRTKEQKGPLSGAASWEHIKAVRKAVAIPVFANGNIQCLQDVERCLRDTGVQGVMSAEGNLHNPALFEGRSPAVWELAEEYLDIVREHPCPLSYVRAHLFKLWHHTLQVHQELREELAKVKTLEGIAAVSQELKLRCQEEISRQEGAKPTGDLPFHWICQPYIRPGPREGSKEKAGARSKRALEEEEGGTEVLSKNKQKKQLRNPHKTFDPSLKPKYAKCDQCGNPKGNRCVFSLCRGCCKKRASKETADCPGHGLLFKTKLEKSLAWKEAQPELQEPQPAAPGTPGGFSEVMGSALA
UniProt Q14919: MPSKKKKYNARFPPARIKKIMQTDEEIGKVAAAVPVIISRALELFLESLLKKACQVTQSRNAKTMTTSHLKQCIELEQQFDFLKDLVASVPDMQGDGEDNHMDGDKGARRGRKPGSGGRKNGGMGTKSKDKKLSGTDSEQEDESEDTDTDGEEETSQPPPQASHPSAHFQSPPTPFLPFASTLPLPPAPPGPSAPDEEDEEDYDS
UniProt Q9NP97, whole entry, looked up: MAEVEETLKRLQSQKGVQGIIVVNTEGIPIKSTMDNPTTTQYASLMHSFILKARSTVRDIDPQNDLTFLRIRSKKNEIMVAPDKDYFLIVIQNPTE

Tests used:
Assay in all cases: log2 fold change, soluble protein after heating vs DMSO (PISA); higher = thermal stabilisation; K562 lysate, 10 uM; active = over 0.2 and 3.5 SD of the protein, either way, in both replicates (recomputed)
lapatinib = compound: CS(=O)(=O)CCNCc1ccc(-c2ccc3ncnc(Nc4ccc(OCc5cccc(F)c5)c(Cl)c4)c3c2)o1 [lapatinib]
Outline: (§1)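 The values are log-two fold changes in thermal stability compared with solvent controls and come from duplicates. They were obtained by TMTpro 16plex LC-MS/MS, with channel sums equalised, on the supernatant after 21,000xg for 90 min. That supernatant came from crude K562 extract at 1 mg/mL protein treated with 10 μM compound for 30 min, heated for 3 min across 48°C-58°C, pooled and brought to 0.5% NP-40 at 4°C.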

pictilisib = compound: CS(=O)(=O)N1CCN(Cc2cc3nc(-c4cccc5[nH]ncc45)nc(N4CCOCC4)c3s2)CC1 [pictilisib]
Outline: as §1

crizotinib = compound: C[C@@H](Oc1cc(-c2cnn(C3CCNCC3)c2)cnc1N)c1c(Cl)ccc(F)c1Cl [crizotinib]
Outline: as §1

[1] = compound: C[C@H](C1=CC=C(C=C1)C(=O)NC2=C3C=CNC3=NC=C2)N
Outline: as §1

duvelisib = compound: C[C@H](Nc1ncnc2nc[nH]c12)c1cc2cccc(Cl)c2c(=O)n1-c1ccccc1 [duvelisib]
Outline: as §1

gandotinib = compound: Cc1cc(Nc2cc(CN3CCOCC3)c3nc(C)c(Cc4ccc(Cl)cc4F)n3n2)n[nH]1 [gandotinib]
Outline: as §1

tozasertib = compound: Cc1cc(Nc2cc(N3CCN(C)CC3)nc(Sc3ccc(NC(=O)C4CC4)cc3)n2)n[nH]1 [tozasertib]
Outline: as §1

doramapimod = compound: Cc1ccc(-n2nc(C(C)(C)C)cc2NC(=O)Nc2ccc(OCCN3CCOCC3)c3ccccc23)cc1 [doramapimod]
Outline: as §1

bafetinib = compound: Cc1ccc(NC(=O)c2ccc(CN3CC[C@H](N(C)C)C3)c(C(F)(F)F)c2)cc1Nc1nccc(-c2cncnc2)n1 [bafetinib]
Outline: as §1

[2] = compound: Cc1cccc(CC(=O)N2CCc3c2ccc(-c2cn(C)c4ncnc(N)c24)c3F)n1
Outline: as §1

nilotinib = compound: Cc1cn(-c2cc(NC(=O)c3ccc(C)c(Nc4nccc(-c5cccnc5)n4)c3)cc(C(F)(F)F)c2)cn1 [nilotinib]
Outline: as §1

[3] = compound: Cc1nc(Nc2n[nH]c3c2CN(C(=O)N[C@H](CN(C)C)c2ccccc2)C3(C)C)c2sccc2n1
Outline: as §1

dasatinib = compound: Cc1nc(Nc2ncc(C(=O)Nc3c(C)cccc3Cl)s2)cc(N2CCN(CCO)CC2)n1 [dasatinib]
Outline: as §1

[4] = compound: Cc1ncc(-c2ccnc(Nc3ccc(S(C)(=O)=O)cc3)n2)n1C(C)C
Outline: as §1

[5] = compound: Cn1cc(-c2ccc3c(c2)CCN3C(=O)Cc2cccc(C(F)(F)F)c2)c2c(N)ncnc21
Outline: as §1

quisinostat = compound: Cn1cc(CNCC2CCN(c3ncc(C(=O)NO)cn3)CC2)c2ccccc21 [quisinostat]
Outline: as §1

tipifarnib = compound: Cn1cncc1[C@@](N)(c1ccc(Cl)cc1)c1ccc2c(c1)c(-c1cccc(Cl)c1)cc(=O)n2C [tipifarnib]
Outline: as §1

[6] = compound: NC(=O)Nc1cc(-c2cccc(F)c2)sc1C(=O)N[C@H]1CCCNC1
Outline: as §1

[7] = compound: NC(=O)c1cnc(N[C@@H]2CCCC[C@@H]2N)nc1Nc1cccc(-n2nccn2)c1
Outline: as §1

[8] = compound: NC1(c2ccc(-c3nc4ccn5c(=O)[nH]nc5c4cc3-c3ccccc3)cc2)CCC1
Outline: as §1

Measured: log2 fold change

EEF1E1 (UniProt O43324)
inactive: lapatinib -0.04 | pictilisib -0.016 | crizotinib -0.046 | [1] -0.087 | duvelisib 0.004 | gandotinib -0.09 | tozasertib 0.038 | doramapimod 0 | bafetinib -0.018 | [2] 0.095 | nilotinib -0.021 | [3] 0.004 | dasatinib -0.059 | [4] -0.016 | [5] 0.006 | quisinostat -0.039 | tipifarnib 0.03 | [6] 0.047 | [7] -0.013 | [8] -0.023

EIF1AD (UniProt Q8N9N8)
inactive: lapatinib 0.012 | pictilisib 0.024 | crizotinib 0.001 | [1] -0.056 | duvelisib 0.01 | gandotinib 0.019 | tozasertib 0.007 | doramapimod 0.046 | bafetinib 0.022 | [2] -0.021 | nilotinib 0.015 | [3] -0.008 | dasatinib 0.027 | [4] 0.018 | [5] 0.055 | quisinostat 0.002 | tipifarnib 0.02 | [6] -0.007 | [7] -0.003 | [8] -0.017

EFHD2 (UniProt Q96C19)
inactive: lapatinib 0 | pictilisib 0.024 | crizotinib 0.027 | [1] -0.05 | duvelisib 0.038 | gandotinib 0.085 | tozasertib 0.003 | doramapimod 0.01 | bafetinib 0.003 | [2] -0.005 | nilotinib 0.011 | [3] -0.014 | dasatinib 0.034 | [4] 0.005 | [5] -0.004 | quisinostat 0.014 | tipifarnib 0.004 | [6] -0.025 | [7] -0.021 | [8] 0.004

DST (UniProt Q03001)
inactive: lapatinib -0.019 | pictilisib 0.015 | crizotinib -0.02 | [1] -0.17 | duvelisib 0.018 | gandotinib 0.101 | tozasertib 0.024 | doramapimod 0.023 | bafetinib -0.137 | [2] 0.246 | nilotinib -0.002 | [3] -0.035 | dasatinib -0.023 | [4] 0.045 | [5] -0.06 | quisinostat -0.118 | tipifarnib 0.069 | [6] 0.022 | [7] 0.027 | [8] -0.107

DR1 (UniProt Q01658)
inactive: lapatinib -0.01 | pictilisib -0.009 | crizotinib 0.03 | [1] -0.005 | duvelisib 0.042 | gandotinib 0.085 | tozasertib -0.039 | doramapimod 0.014 | bafetinib 0.008 | [2] -0.011 | nilotinib -0.01 | [3] 0.018 | dasatinib 0.005 | [4] -0.016 | [5] -0.045 | quisinostat -0.034 | tipifarnib 0.005 | [6] 0.026 | [7] -0.023 | [8] 0.027

E2F4 (UniProt Q16254)
inactive: lapatinib 0.014 | pictilisib 0.018 | crizotinib -0.03 | [1] -0.01 | duvelisib 0.107 | gandotinib 0.041 | tozasertib 0.038 | doramapimod 0.055 | bafetinib -0.089 | [2] 0.024 | nilotinib 0.001 | [3] -0.003 | dasatinib -0.001 | [4] -0.012 | [5] 0.061 | quisinostat -0.082 | tipifarnib -0.013 | [6] -0.028 | [7] 0.011 | [8] -0.016

DUT (UniProt P33316)
inactive: lapatinib -0.005 | pictilisib 0.007 | crizotinib 0.025 | [1] -0.05 | duvelisib 0.043 | gandotinib 0.056 | tozasertib -0.033 | doramapimod -0.022 | bafetinib 0.106 | [2] 0.003 | nilotinib 0.028 | [3] -0.034 | dasatinib 0.021 | [4] -0.05 | [5] -0.036 | quisinostat 0.046 | tipifarnib -0.01 | [6] -0.013 | [7] -0.006 | [8] -0.005

EIF1B (UniProt O60739)
inactive: lapatinib 0.199 | pictilisib 0.103 | crizotinib 0.098 | [1] -0.056 | duvelisib 0.262 | gandotinib -0.099 | tozasertib 0.168 | doramapimod -0.168 | bafetinib -0.015 | [2] -0.204 | nilotinib 0.251 | [3] 0.231 | dasatinib -0.267 | [4] 0.463 | [5] 0.034 | quisinostat -0.031 | tipifarnib -0.057 | [6] -0.025 | [7] -0.019 | [8] 0.039

EFTUD2 (UniProt Q15029)
inactive: lapatinib -0.001 | pictilisib -0.011 | crizotinib 0.017 | [1] 0.039 | duvelisib -0.012 | gandotinib -0.008 | tozasertib -0.033 | doramapimod 0 | bafetinib 0.031 | [2] -0.039 | nilotinib 0.007 | [3] -0.011 | dasatinib 0.018 | [4] -0.005 | [5] 0.008 | quisinostat -0.012 | tipifarnib 0.008 | [6] -0.004 | [7] -0.02 | [8] 0.005

DYNLT1 (UniProt P63172)
inactive: lapatinib 0.007 | pictilisib -0.033 | crizotinib -0.044 | [1] -0.015 | duvelisib -0.019 | gandotinib -0.012 | tozasertib -0.012 | doramapimod -0.034 | bafetinib -0.004 | [2] 0.021 | nilotinib 0.024 | [3] 0.062 | dasatinib 0.002 | [4] 0.123 | [5] -0.011 | quisinostat 0.056 | tipifarnib 0.011 | [6] 0.054 | [7] -0.029 | [8] -0.002

EAPP (UniProt Q56P03)
inactive: lapatinib -0.033 | pictilisib 0.058 | crizotinib 0 | [1] 0.03 | duvelisib 0.03 | gandotinib -0.157 | tozasertib -0.09 | doramapimod -0.058 | bafetinib 0.109 | [2] 0.128 | nilotinib 0.039 | [3] 0.018 | dasatinib 0.024 | [4] -0.095 | [5] -0.001 | quisinostat 0.017 | tipifarnib 0.002 | [6] 0.021 | [7] 0.038 | [8] -0.045

Quoted at random: 2 entries already listed
EAPP (UniProt Q56P03)
inactive: lapatinib -0.033 | pictilisib 0.058 | crizotinib 0 | [1] 0.03 | duvelisib 0.03 | gandotinib -0.157 | tozasertib -0.09 | doramapimod -0.058 | bafetinib 0.109 | [2] 0.128 | nilotinib 0.039 | [3] 0.018 | dasatinib 0.024 | [4] -0.095 | [5] -0.001 | quisinostat 0.017 | tipifarnib 0.002 | [6] 0.021 | [7] 0.038 | [8] -0.045

EIF1B (UniProt O60739)
inactive: lapatinib 0.199 | pictilisib 0.103 | crizotinib 0.098 | [1] -0.056 | duvelisib 0.262 | gandotinib -0.099 | tozasertib 0.168 | doramapimod -0.168 | bafetinib -0.015 | [2] -0.204 | nilotinib 0.251 | [3] 0.231 | dasatinib -0.267 | [4] 0.463 | [5] 0.034 | quisinostat -0.031 | tipifarnib -0.057 | [6] -0.025 | [7] -0.019 | [8] 0.039

Next entries follow.

EEF1AKNMT (UniProt Q8N6R0)
inactive: lapatinib -0.006 | pictilisib -0.046 | crizotinib -0.123 | [1] 0.017 | duvelisib 0.03 | gandotinib -0.133 | tozasertib -0.029 | doramapimod 0.074 | bafetinib -0.014 | [2] -0.024 | nilotinib 0.006 | [3] -0.008 | dasatinib -0.044 | [4] -0.011 | [5] 0.043 | quisinostat -0.093 | tipifarnib -0.003 | [6] 0.045 | [7] -0.013 | [8] 0.01

DXO (UniProt O77932)
inactive: lapatinib -0.032 | pictilisib -0.055 | crizotinib -0.064 | [1] -0.081 | duvelisib 0.048 | gandotinib -0.061 | tozasertib -0.057 | doramapimod -0.076 | bafetinib 0.03 | [2] 0.018 | nilotinib 0.113 | [3] 0.104 | dasatinib 0.073 | [4] -0.053 | [5] 0.151 | quisinostat -0.082 | tipifarnib 0.045 | [6] 0.08 | [7] -0.048 | [8] -0.03

DUS1L (UniProt Q6P1R4)
inactive: lapatinib -0.007 | pictilisib -0.02 | crizotinib -0.047 | [1] -0.02 | duvelisib -0.015 | gandotinib -0.074 | tozasertib -0.068 | doramapimod -0.018 | bafetinib -0.075 | [2] 0.073 | nilotinib -0.018 | [3] 0.011 | dasatinib -0.03 | [4] 0.031 | [5] -0.032 | quisinostat -0.035 | tipifarnib 0.008 | [6] 0.096 | [7] 0.005 | [8] 0.061

DRAP1 isoform 2 (UniProt Q14919)
inactive: lapatinib -0.004 | pictilisib -0.002 | crizotinib 0.011 | [1] 0.047 | duvelisib 0.013 | gandotinib 0.016 | tozasertib 0.009 | doramapimod 0.028 | bafetinib 0.015 | [2] -0.006 | nilotinib -0.02 | [3] 0.01 | dasatinib 0.039 | [4] 0.014 | [5] 0.012 | quisinostat -0.008 | tipifarnib -0.01 | [6] -0.021 | [7] -0.015 | [8] -0.023

DYNLRB1 (UniProt Q9NP97)
inactive: lapatinib 0.076 | pictilisib -0.011 | crizotinib -0.019 | [1] 0.123 | duvelisib 0.027 | gandotinib -0.015 | tozasertib 0.018 | doramapimod 0.02 | bafetinib 0.007 | [2] -0.009 | nilotinib 0.078 | [3] 0.007 | dasatinib 0.036 | [4] 0.107 | [5] 0.028 | quisinostat -0.033 | tipifarnib -0.016 | [6] -0.03 | [7] -0.031 | [8] 0.051
